# The list shows a part of the results.
# Tests used:
# Assay in all cases: glycan array binding signal (z-score within array); higher = stronger binding
# Details in all cases: glycan notation: IUPAC condensed, linker removed
# [1] = molecular target: Fuc(a1-3)[Gal(b1-4)]Glc6S
# In short: (§1)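 The Consortium for Functional Glycomics database supplied 3228 glycan arrays, of which those lacking an available protein sequence were dropped. The binding signal, a within-array Z-score, was averaged across arrays of the same protein sequence and across linkers. Negative scores can be read as non-binding.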
# [2] = molecular target: Fuc(a1-3)[Gal(b1-4)]GlcNAc
# In short: as §1
# [3] = molecular target: Fuc(a1-3)[Gal(b1-4)]GlcNAc(b1-2)Man
# In short: as §1
# [4] = molecular target: Fuc(a1-3)[Gal(b1-4)]GlcNAc(b1-2)Man(a1-3)[Fuc(a1-3)[Gal(b1-4)]GlcNAc(b1-2)Man(a1-6)]Man(b1-4)GlcNAc(b1-4)GlcNAc
# In short: as §1
# [5] = molecular target: Fuc(a1-3)[Gal(b1-4)]GlcNAc(b1-2)Man(a1-3)[Fuc(a1-3)[Gal(b1-4)]GlcNAc(b1-2)Man(a1-6)]Man(b1-4)GlcNAc(b1-4)[Fuc(a1-6)]GlcNAc
# In short: as §1
# [6] = molecular target: Fuc(a1-3)[Gal(b1-4)]GlcNAc(b1-3)Gal(b1-3)[Fuc(a1-4)]GlcNAc
# In short: as §1
# [7] = molecular target: Fuc(a1-3)[Gal(b1-4)]GlcNAc(b1-3)GalNAc
# In short: as §1
# [8] = molecular target: Fuc(a1-3)[Gal(b1-4)]GlcNAc(b1-4)Gal(b1-4)[Fuc(a1-3)]GlcNAc
# In short: as §1
# [9] = molecular target: Fuc(a1-3)[Gal(b1-4)]GlcNAc(b1-4)Gal(b1-4)[Fuc(a1-3)]GlcNAc(b1-4)Gal(b1-4)[Fuc(a1-3)]GlcNAc
# In short: as §1
# [10] = molecular target: Fuc(a1-3)[Gal(b1-4)]GlcNAc(b1-6)GalNAc
# In short: as §1
# [11] = molecular target: Fuc(a1-3)[Gal(b1-4)]GlcNAc(b1-6)[Gal(b1-3)GlcNAc(b1-3)]Gal(b1-4)Glc
# In short: as §1
# [12] = molecular target: Fuc(a1-3)[Gal(b1-4)]GlcNAc6S
# In short: as §1
# [13] = molecular target: Fuc(a1-3)[Gal3S(b1-4)]Glc
# In short: as §1
# [14] = molecular target: Fuc(a1-3)[Gal3S(b1-4)]GlcNAc
# In short: as §1
# [15] = molecular target: Fuc(a1-3)[Gal3S(b1-4)]GlcNAc6S
# In short: as §1
# [16] = molecular target: Fuc(a1-3)[GalNAc(b1-4)]GlcNAc
# In short: as §1
# [17] = molecular target: Fuc(a1-3)[GalNAc(b1-4)]GlcNAc6S
# In short: as §1
# [18] = molecular target: Fuc(a1-4)GlcNAc
# In short: as §1
# [19] = molecular target: Fuc(b1-3)GlcNAc
# In short: as §1
# [20] = molecular target: Gal(a1-2)Gal
# In short: as §1
# [21] = molecular target: Gal(a1-3)Gal
# In short: as §1
# [22] = molecular target: Gal(a1-3)Gal(b1-3)GlcNAc
# In short: as §1
# [23] = molecular target: Gal(a1-3)Gal(b1-3)GlcNAc(b1-2)Man
# In short: as §1
# [24] = molecular target: Gal(a1-3)Gal(b1-3)GlcNAc(b1-2)Man(a1-3)[Gal(a1-3)Gal(b1-3)GlcNAc(b1-2)Man(a1-6)]Man(b1-4)GlcNAc(b1-4)GlcNAc
# In short: as §1
# [25] = molecular target: Gal(a1-3)Gal(b1-3)GlcNAc(b1-3)GalNAc
# In short: as §1
# [26] = molecular target: Gal(a1-3)Gal(b1-3)GlcNAc(b1-6)GalNAc
# In short: as §1
# [27] = molecular target: Gal(a1-3)Gal(b1-3)[Fuc(a1-4)]GlcNAc(b1-2)Man(a1-3)[Gal(a1-3)Gal(b1-3)[Fuc(a1-4)]GlcNAc(b1-2)Man(a1-6)]Man(b1-4)GlcNAc(b1-4)GlcNAc
# In short: as §1
# [28] = molecular target: Gal(a1-3)Gal(b1-4)Glc
# In short: as §1
# [29] = molecular target: Gal(a1-3)Gal(b1-4)GlcNAc
# In short: as §1
# [30] = molecular target: Gal(a1-3)Gal(b1-4)GlcNAc(b1-2)Man
# In short: as §1
# [31] = molecular target: Gal(a1-3)Gal(b1-4)GlcNAc(b1-2)Man(a1-3)[Gal(a1-3)Gal(b1-4)GlcNAc(b1-2)Man(a1-6)]Man(b1-4)GlcNAc(b1-4)GlcNAc
# In short: as §1
# [32] = molecular target: Gal(a1-3)Gal(b1-4)GlcNAc(b1-3)GalNAc
# In short: as §1
# [33] = molecular target: Gal(a1-3)Gal(b1-4)GlcNAc(b1-6)GalNAc
# In short: as §1
# [34] = molecular target: Gal(a1-3)Gal(b1-4)[Fuc(a1-3)]GlcNAc
# In short: as §1
# [35] = molecular target: Gal(a1-3)Gal(b1-4)[Fuc(a1-3)]GlcNAc(b1-2)Man(a1-3)[Gal(a1-3)Gal(b1-4)[Fuc(a1-3)]GlcNAc(b1-2)Man(a1-6)]Man(b1-4)GlcNAc(b1-4)GlcNAc
# In short: as §1
# [36] = molecular target: Gal(a1-3)GalNAc
# In short: as §1
# [37] = molecular target: Gal(a1-3)[Gal(a1-4)]Gal(b1-4)GlcNAc
# In short: as §1
# [38] = molecular target: Gal(a1-4)Gal(b1-3)GlcNAc(b1-2)Man(a1-3)[Gal(a1-4)Gal(b1-3)GlcNAc(b1-2)Man(a1-6)]Man(b1-4)GlcNAc(b1-4)GlcNAc
# In short: as §1
# [39] = molecular target: Gal(a1-4)Gal(b1-4)Glc
# In short: as §1
# [40] = molecular target: Gal(a1-4)Gal(b1-4)GlcNAc
# In short: as §1
# [41] = molecular target: Gal(a1-4)Gal(b1-4)GlcNAc(b1-2)Man(a1-3)[Gal(a1-4)Gal(b1-4)GlcNAc(b1-2)Man(a1-6)]Man(b1-4)GlcNAc(b1-4)GlcNAc
# In short: as §1
# [42] = molecular target: Gal(a1-4)Gal(b1-4)GlcNAc(b1-3)Gal(b1-4)Glc
# In short: as §1
# [43] = molecular target: Gal(a1-4)GlcNAc
# In short: as §1
# [44] = molecular target: Gal(a1-6)Glc
# In short: as §1
# [45] = molecular target: Gal(b1-2)Gal
# In short: as §1
# [46] = molecular target: Gal(b1-3)Gal
# In short: as §1
# [47] = molecular target: Gal(b1-3)Gal(b1-4)GlcNAc
# In short: as §1
# [48] = molecular target: Gal(b1-3)GalNAc
# In short: as §1
# [49] = molecular target: Gal(b1-3)GalNAc(a1-3)[Fuc(a1-2)]Gal(b1-4)Glc
# In short: as §1
# [50] = molecular target: Gal(b1-3)GalNAc(a1-3)[Fuc(a1-2)]Gal(b1-4)GlcNAc
# In short: as §1
# [51] = molecular target: Gal(b1-3)GalNAc(b1-3)Gal
# In short: as §1
# [52] = molecular target: Gal(b1-3)GalNAc(b1-3)Gal(a1-4)Gal(b1-4)Glc
# In short: as §1
# [53] = molecular target: Gal(b1-3)GalNAc(b1-4)Gal(b1-4)Glc
# In short: as §1
# [54] = molecular target: Gal(b1-3)GalNAc(b1-4)[Neu5Ac(a2-3)]Gal(b1-4)Glc
# In short: as §1
# [55] = molecular target: Gal(b1-3)GlcNAc
# In short: as §1
# [56] = molecular target: Gal(b1-3)GlcNAc(a1-3)Gal(b1-4)GlcNAc
# In short: as §1
# [57] = molecular target: Gal(b1-3)GlcNAc(a1-6)Gal(b1-4)GlcNAc
# In short: as §1
# [58] = molecular target: Gal(b1-3)GlcNAc(b1-2)Man
# In short: as §1
# [59] = molecular target: Gal(b1-3)GlcNAc(b1-2)Man(a1-3)[Gal(b1-3)GlcNAc(b1-2)Man(a1-6)]Man(b1-4)GlcNAc(b1-4)GlcNAc
# In short: as §1
# [60] = molecular target: Gal(b1-3)GlcNAc(b1-2)Man(a1-3)[Gal(b1-3)GlcNAc(b1-2)Man(a1-6)]Man(b1-4)GlcNAc(b1-4)[Fuc(a1-6)]GlcNAc
# In short: as §1
binder,measurement,setting,value
Blon0732mut (Bifidobacterium longum) (protein) MPTSEHKADDATRHLTLIPAPVTLEYTHGTALIGPLVTIEDADQSWETLPIEQLSDELRHRYGVTVLRRRTHGTVISLGLDSRLAHDEYTLDVSESEGIRVRGGGESGLRYGLQTLRQIIGQTSRAIPCLHIQDKPAFAVRAYSLDVTRGRVPTMEFLTWFVDQLALYKYNQFQLYVEHAFAFVELSEAWRGTDPLTAADITYLDEYCARRGIELVPSLATFGHMYMNLRTREHRGLGEFPEDADRPFSFIERMEHHTLNAADPKAHDFASRLIEEYAPLFRSKSFNIGGNETFDLGRGRSAQDAPEAGRDELYAGFVRDLCETLARHGRQPMLWADIALESPRTMDLLPGDITMLNWMYEPQIDESKIQTIATQGRRQFVCPAVRAWSRFFPDYAGAWLNTYHMALAGTKYDAEGMVVTDWGDYGHVNDPRLSVPGLCYGAQNAWNPIEIDAHEMNRRISALVYGDESGRIMDCLARIDSDGVSFPWDLAVQVLELEYGSGTGALNMDVAACMERSSGGKLTLDRTLGCDDARRRMLQWNRERIERRRDCDQVLRDCGDAFAGLDKGGLTAEFLSVMLDGQRLFNELGEELLALADGKDVGSGANRLAADLELWFERYRAQWLSVGRHAELARIAHVVWSLADILRRGAL,glycan array binding signal (z-score),[1],0.149
same,glycan array binding signal (z-score),[2],-0.227
same,glycan array binding signal (z-score),[3],0.245
same,glycan array binding signal (z-score),[4],1.12
same,glycan array binding signal (z-score),[5],-0.597
same,glycan array binding signal (z-score),[6],-0.679
same,glycan array binding signal (z-score),[7],0.249
same,glycan array binding signal (z-score),[8],-0.424
same,glycan array binding signal (z-score),[9],-0.037
same,glycan array binding signal (z-score),[10],1.4
same,glycan array binding signal (z-score),[11],-1.19
same,glycan array binding signal (z-score),[12],0.003
same,glycan array binding signal (z-score),[13],0.203
same,glycan array binding signal (z-score),[14],-0.792
same,glycan array binding signal (z-score),[15],-0.391
same,glycan array binding signal (z-score),[16],1.89
same,glycan array binding signal (z-score),[17],-0.444
same,glycan array binding signal (z-score),[18],-0.304
same,glycan array binding signal (z-score),[19],-0.285
same,glycan array binding signal (z-score),[20],-0.299
same,glycan array binding signal (z-score),[21],0.305
same,glycan array binding signal (z-score),[22],-0.787
same,glycan array binding signal (z-score),[23],-1.26
same,glycan array binding signal (z-score),[24],0.42
same,glycan array binding signal (z-score),[25],0.447
same,glycan array binding signal (z-score),[26],-0.309
same,glycan array binding signal (z-score),[27],-0.11
same,glycan array binding signal (z-score),[28],0.782
same,glycan array binding signal (z-score),[29],-1.07
same,glycan array binding signal (z-score),[30],-0.505
same,glycan array binding signal (z-score),[31],0.086
same,glycan array binding signal (z-score),[32],-0.353
same,glycan array binding signal (z-score),[33],-0.671
same,glycan array binding signal (z-score),[34],0.387
same,glycan array binding signal (z-score),[35],0.593
same,glycan array binding signal (z-score),[36],1.03
same,glycan array binding signal (z-score),[37],5.9
same,glycan array binding signal (z-score),[38],-0.39
same,glycan array binding signal (z-score),[39],2.6
same,glycan array binding signal (z-score),[40],0.631
same,glycan array binding signal (z-score),[41],0.138
same,glycan array binding signal (z-score),[42],-0.423
same,glycan array binding signal (z-score),[43],-0.94
same,glycan array binding signal (z-score),[44],0.677
same,glycan array binding signal (z-score),[45],-0.592
same,glycan array binding signal (z-score),[46],-0.514
same,glycan array binding signal (z-score),[47],1.7
same,glycan array binding signal (z-score),[48],0.05
same,glycan array binding signal (z-score),[49],-0.585
same,glycan array binding signal (z-score),[50],0.141
same,glycan array binding signal (z-score),[51],-0.712
same,glycan array binding signal (z-score),[52],1.32
same,glycan array binding signal (z-score),[53],1.73
same,glycan array binding signal (z-score),[54],-0.773
same,glycan array binding signal (z-score),[55],0.544
same,glycan array binding signal (z-score),[56],-0.24
same,glycan array binding signal (z-score),[57],-0.007
same,glycan array binding signal (z-score),[58],-0.204
same,glycan array binding signal (z-score),[59],0.197
same,glycan array binding signal (z-score),[60],-0.917

# Source: the supplement of paper PMC8728848
